Data published in article PMC6364870.
Results are given in words; binding and its absence hold for the method and conditions named. In cells and extracts the contact can be indirect. Binding calls can cover weak binding; strength is not graded here.

Target: T1, SATB2 (mouse (endogenous in cortex)) (UniProt Q8VI24)
T1 sequence: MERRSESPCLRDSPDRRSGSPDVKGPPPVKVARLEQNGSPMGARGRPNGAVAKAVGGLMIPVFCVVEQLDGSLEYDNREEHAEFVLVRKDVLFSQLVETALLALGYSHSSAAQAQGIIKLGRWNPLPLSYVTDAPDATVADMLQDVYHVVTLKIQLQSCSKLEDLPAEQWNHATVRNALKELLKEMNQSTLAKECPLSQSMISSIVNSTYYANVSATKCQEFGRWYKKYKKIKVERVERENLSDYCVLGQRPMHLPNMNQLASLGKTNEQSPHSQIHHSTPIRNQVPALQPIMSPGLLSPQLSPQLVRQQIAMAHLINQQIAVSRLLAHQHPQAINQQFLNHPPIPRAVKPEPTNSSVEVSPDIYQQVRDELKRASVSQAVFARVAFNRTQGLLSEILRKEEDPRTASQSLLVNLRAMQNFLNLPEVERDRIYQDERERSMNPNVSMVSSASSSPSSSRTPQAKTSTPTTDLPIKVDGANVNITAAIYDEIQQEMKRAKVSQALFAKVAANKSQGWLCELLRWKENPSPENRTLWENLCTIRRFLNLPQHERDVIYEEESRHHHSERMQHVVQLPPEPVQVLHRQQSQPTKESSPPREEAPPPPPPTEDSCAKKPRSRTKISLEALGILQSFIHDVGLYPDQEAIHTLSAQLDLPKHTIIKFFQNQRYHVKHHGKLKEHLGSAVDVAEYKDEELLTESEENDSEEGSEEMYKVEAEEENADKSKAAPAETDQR
Experiment: co-IP; anti-SATB2 on protein G Dynabeads, 500 μg of cortical lysate of control and SATB2-deficient mice, overnight 4°C; immunoblot with antibodies against the partners

binding: binds
Substance: LAP2 (mouse (endogenous in cortex))
